Data from the supplement of paper PMC8728848.
The other results are listed elsewhere or left out.

Assays:
Assay in all cases: glycan array binding signal (z-score within array); higher = stronger binding
Settings in all cases: glycan notation: IUPAC condensed, linker removed
[1] = target: Glc(a1-6)Glc(a1-6)Glc(a1-6)Glc
Procedure, shortened: (§1)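 From the Consortium for Functional Glycomics database, 3228 arrays were curated, keeping only those whose protein sequence was available. Binding is given as a within-array Z-score averaged across arrays sharing a protein sequence and across linkers. Negative Z-scores can be read as non-binding.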

Glc(b1-4)Glc = target: Glc(b1-4)Glc
Procedure, shortened: as §1

Glc(b1-6)Glc = target: Glc(b1-6)Glc
Procedure, shortened: as §1

GlcA(b1-3)GlcNAc = target: GlcA(b1-3)GlcNAc
Procedure, shortened: as §1

GlcA(b1-6)Gal = target: GlcA(b1-6)Gal
Procedure, shortened: as §1

[2] = target: GlcA3S(b1-3)Gal(b1-4)GlcNAc(b1-2)Man
Procedure, shortened: as §1

[3] = target: GlcNAc(a1-3)Gal(b1-4)GlcNAc
Procedure, shortened: as §1

[4] = target: GlcNAc(a1-4)Gal(b1-3)GlcNAc
Procedure, shortened: as §1

[5] = target: GlcNAc(a1-4)Gal(b1-4)GalNAc
Procedure, shortened: as §1

[6] = target: GlcNAc(a1-4)Gal(b1-4)GlcNAc
Procedure, shortened: as §1

[7] = target: GlcNAc(a1-4)Gal(b1-4)GlcNAc(b1-3)Gal(b1-4)Glc
Procedure, shortened: as §1

[8] = target: GlcNAc(a1-4)Gal(b1-4)GlcNAc(b1-3)Gal(b1-4)GlcNAc
Procedure, shortened: as §1

[9] = target: GlcNAc(a1-4)Gal(b1-4)GlcNAc(b1-3)Gal(b1-4)GlcNAc(b1-3)Gal(b1-4)GlcNAc
Procedure, shortened: as §1

[10] = target: GlcNAc(a1-6)Gal(b1-4)GlcNAc
Procedure, shortened: as §1

[11] = target: GlcNAc(b1-2)Gal(b1-3)GalNAc
Procedure, shortened: as §1

[12] = target: GlcNAc(b1-2)Man(a1-3)[GlcNAc(b1-2)Man(a1-6)]Man(b1-4)GlcNAc(b1-4)GlcNAc
Procedure, shortened: as §1

[13] = target: GlcNAc(b1-2)Man(a1-3)[GlcNAc(b1-2)Man(a1-6)]Man(b1-4)GlcNAc(b1-4)[Fuc(a1-6)]GlcNAc
Procedure, shortened: as §1

[14] = target: GlcNAc(b1-2)Man(a1-3)[GlcNAc(b1-4)][GlcNAc(b1-2)Man(a1-6)]Man(b1-4)GlcNAc(b1-4)GlcNAc
Procedure, shortened: as §1

[15] = target: GlcNAc(b1-2)Man(a1-3)[GlcNAc(b1-4)][GlcNAc(b1-2)Man(a1-6)]Man(b1-4)GlcNAc(b1-4)[Fuc(a1-6)]GlcNAc
Procedure, shortened: as §1

[16] = target: GlcNAc(b1-2)[GlcNAc(b1-4)]Man(a1-3)[GlcNAc(b1-2)Man(a1-6)]Man(b1-4)GlcNAc(b1-4)GlcNAc
Procedure, shortened: as §1

[17] = target: GlcNAc(b1-2)[GlcNAc(b1-4)]Man(a1-3)[GlcNAc(b1-4)][GlcNAc(b1-2)Man(a1-6)]Man(b1-4)GlcNAc(b1-4)GlcNAc
Procedure, shortened: as §1

[18] = target: GlcNAc(b1-2)[GlcNAc(b1-4)]Man(a1-3)[GlcNAc(b1-4)][GlcNAc(b1-2)[GlcNAc(b1-6)]Man(a1-6)]Man(b1-4)GlcNAc(b1-4)GlcNAc
Procedure, shortened: as §1

[19] = target: GlcNAc(b1-2)[GlcNAc(b1-4)]Man(a1-3)[GlcNAc(b1-4)][GlcNAc(b1-2)[GlcNAc(b1-6)]Man(a1-6)]Man(b1-4)GlcNAc(b1-4)[Fuc(a1-6)]GlcNAc
Procedure, shortened: as §1

[20] = target: GlcNAc(b1-2)[GlcNAc(b1-6)]Man(a1-6)[GlcNAc(b1-2)Man(a1-3)]Man(b1-4)GlcNAc(b1-4)[Fuc(a1-6)]GlcNAc
Procedure, shortened: as §1

[21] = target: GlcNAc(b1-2)[GlcNAc(b1-6)]Man(a1-6)[GlcNAc(b1-4)][GlcNAc(b1-2)Man(a1-3)]Man(b1-4)GlcNAc(b1-4)GlcNAc
Procedure, shortened: as §1

GlcNAc(b1-3)Fuc = target: GlcNAc(b1-3)Fuc
Procedure, shortened: as §1

GlcNAc(b1-3)Gal = target: GlcNAc(b1-3)Gal
Procedure, shortened: as §1

GlcNAc(b1-3)Gal(b1-4)Glc = target: GlcNAc(b1-3)Gal(b1-4)Glc
Procedure, shortened: as §1

[22] = target: GlcNAc(b1-3)Gal(b1-4)GlcNAc
Procedure, shortened: as §1

[23] = target: GlcNAc(b1-3)Gal(b1-4)GlcNAc(b1-2)Man(a1-3)[GlcNAc(b1-3)Gal(b1-4)GlcNAc(b1-2)Man(a1-6)]Man(b1-4)GlcNAc(b1-4)GlcNAc
Procedure, shortened: as §1

[24] = target: GlcNAc(b1-3)Gal(b1-4)GlcNAc(b1-2)Man(a1-3)[GlcNAc(b1-3)Gal(b1-4)GlcNAc(b1-2)Man(a1-6)]Man(b1-4)GlcNAc(b1-4)[Fuc(a1-6)]GlcNAc
Procedure, shortened: as §1

[25] = target: GlcNAc(b1-3)Gal(b1-4)GlcNAc(b1-2)[GlcNAc(b1-3)Gal(b1-4)GlcNAc(b1-6)]Man(a1-6)[GlcNAc(b1-3)Gal(b1-4)GlcNAc(b1-2)Man(a1-3)]Man(b1-4)GlcNAc(b1-4)GlcNAc
Procedure, shortened: as §1

[26] = target: GlcNAc(b1-3)Gal(b1-4)GlcNAc(b1-3)Gal(b1-4)GlcNAc
Procedure, shortened: as §1

[27] = target: GlcNAc(b1-3)Gal(b1-4)GlcNAc(b1-3)Gal(b1-4)GlcNAc(b1-2)Man(a1-3)[GlcNAc(b1-3)Gal(b1-4)GlcNAc(b1-3)Gal(b1-4)GlcNAc(b1-2)Man(a1-6)]Man(b1-4)GlcNAc(b1-4)GlcNAc
Procedure, shortened: as §1

[28] = target: GlcNAc(b1-3)Gal(b1-4)GlcNAc(b1-3)Gal(b1-4)GlcNAc(b1-2)Man(a1-3)[GlcNAc(b1-3)Gal(b1-4)GlcNAc(b1-3)Gal(b1-4)GlcNAc(b1-2)Man(a1-6)]Man(b1-4)GlcNAc(b1-4)[Fuc(a1-6)]GlcNAc
Procedure, shortened: as §1

[29] = target: GlcNAc(b1-3)Gal(b1-4)GlcNAc(b1-3)Gal(b1-4)GlcNAc(b1-2)[GlcNAc(b1-3)Gal(b1-4)GlcNAc(b1-3)Gal(b1-4)GlcNAc(b1-6)]Man(a1-6)[GlcNAc(b1-3)Gal(b1-4)GlcNAc(b1-3)Gal(b1-4)GlcNAc(b1-2)Man(a1-3)]Man(b1-4)GlcNAc(b1-4)[Fuc(a1-6)]GlcNAc
Procedure, shortened: as §1

[30] = target: GlcNAc(b1-3)Gal(b1-4)GlcNAc(b1-3)Gal(b1-4)GlcNAc(b1-3)Gal(b1-4)GlcNAc(b1-2)Man(a1-3)[GlcNAc(b1-3)Gal(b1-4)GlcNAc(b1-3)Gal(b1-4)GlcNAc(b1-3)Gal(b1-4)GlcNAc(b1-2)Man(a1-6)]Man(b1-4)GlcNAc(b1-4)[Fuc(a1-6)]GlcNAc
Procedure, shortened: as §1

B1: PX14351B-bth-512-36-512 (Bacteroides thetaiotaomicron) (protein)
chain: ASETQQWKTLEDTRSALMGVYGLTRAALADNNTHWICGDLRKGDFTVYKRSDLQAVSDNELNKPYDLLKKVSNWRRFYAVINAASVFMEKAPRTVELDRSYSEQNLKYDIAQVRALRAFAYFYMVRIWGDVPLVTYSYDNGTFPSMPRTDAQTVLSYAKAELLTAIEDLPYQYGTQTNLYYGSYGAQWQGKLFNKLSAYSVLAHICAWQGNYAEAETYSAFIIDHASEINAKYTSIADLTSETGLFYSNASVKGSRILGFNFAHNDNEATQSGHLEQLTLAYPLVQKSYPEIYISKDSLFSIFTNFDDLRFGIIDTIKYSSYYVQNLNEETPVFSKIKIIQDGSAKDNDFGVFGSSIVFTRLEDITLLRAEALCALNRSTEAVSYLNMIRTNRGLREVSFKKDFGNNRESLIAEIFEERRRELMGEGWRWYDLVRRQKLMKDNEAFLRLISSGGIYWPVSEDIITANSQIEQNEFWK
- glycan array binding signal (z-score) [1]: -0.137
- glycan array binding signal (z-score) (Glc(b1-4)Glc): -0.293
- glycan array binding signal (z-score) (Glc(b1-6)Glc): 0.065
- glycan array binding signal (z-score) (GlcA(b1-3)GlcNAc): -0.346
- glycan array binding signal (z-score) (GlcA(b1-6)Gal): -0.339
- glycan array binding signal (z-score) [2]: -0.139
- glycan array binding signal (z-score) [3]: -0.287
- glycan array binding signal (z-score) [4]: -0.297
- glycan array binding signal (z-score) [5]: -0.223
- glycan array binding signal (z-score) [6]: -0.287
- glycan array binding signal (z-score) [7]: -0.26
- glycan array binding signal (z-score) [8]: -0.245
- glycan array binding signal (z-score) [9]: -0.25
- glycan array binding signal (z-score) [10]: 0.016
- glycan array binding signal (z-score) [11]: 0.023
- glycan array binding signal (z-score) [12]: -0.287
- glycan array binding signal (z-score) [13]: -0.091
- glycan array binding signal (z-score) [14]: -0.34
- glycan array binding signal (z-score) [15]: -0.224
- glycan array binding signal (z-score) [16]: -0.199
- glycan array binding signal (z-score) [17]: -0.105
- glycan array binding signal (z-score) [18]: -0.392
- glycan array binding signal (z-score) [19]: -0.32
- glycan array binding signal (z-score) [20]: 0.045
- glycan array binding signal (z-score) [21]: -0.242
- glycan array binding signal (z-score) (GlcNAc(b1-3)Fuc): -0.312
- glycan array binding signal (z-score) (GlcNAc(b1-3)Gal): -0.293
- glycan array binding signal (z-score) (GlcNAc(b1-3)Gal(b1-4)Glc): -0.16
- glycan array binding signal (z-score) [22]: -0.298
- glycan array binding signal (z-score) [23]: -0.058
- glycan array binding signal (z-score) [24]: -0.035
- glycan array binding signal (z-score) [25]: -0.09
- glycan array binding signal (z-score) [26]: -0.107
- glycan array binding signal (z-score) [27]: 0.645
- glycan array binding signal (z-score) [28]: -0.034
- glycan array binding signal (z-score) [29]: -0.167
- glycan array binding signal (z-score) [30]: -0.018
